The target of assay [1] is transcription factor 12 (TCF12) (mouse (endogenous in C2C12)) (UniProt Q61286). The assay is described as follows: co-IP; lysate of C2C12 myoblasts (0 h); anti-TCF12 (HEB A-6) or IgG on Protein-G beads, overnight at 4 °C, washed with PBST; blotted with anti-MYOD and anti-TCF12.
For assay [2] the target is unchanged. The assay is described as follows: condition: only in differentiated C2C12 myotubes (60 h); co-IP; lysate of C2C12 myotubes (60 h of differentiation); antibodies on Protein-G beads, overnight at 4 °C, washed with PBST; blotted.
For assay [3] the target is unchanged. Kind of assay: co-IP; lysate of C2C12 myotubes (60 h of differentiation); antibodies on Protein-G beads, overnight at 4 °C, washed with PBST; blotted.

The chains behind the UniProt entries cited, without tags or fusion partners.
UniProt Q61286: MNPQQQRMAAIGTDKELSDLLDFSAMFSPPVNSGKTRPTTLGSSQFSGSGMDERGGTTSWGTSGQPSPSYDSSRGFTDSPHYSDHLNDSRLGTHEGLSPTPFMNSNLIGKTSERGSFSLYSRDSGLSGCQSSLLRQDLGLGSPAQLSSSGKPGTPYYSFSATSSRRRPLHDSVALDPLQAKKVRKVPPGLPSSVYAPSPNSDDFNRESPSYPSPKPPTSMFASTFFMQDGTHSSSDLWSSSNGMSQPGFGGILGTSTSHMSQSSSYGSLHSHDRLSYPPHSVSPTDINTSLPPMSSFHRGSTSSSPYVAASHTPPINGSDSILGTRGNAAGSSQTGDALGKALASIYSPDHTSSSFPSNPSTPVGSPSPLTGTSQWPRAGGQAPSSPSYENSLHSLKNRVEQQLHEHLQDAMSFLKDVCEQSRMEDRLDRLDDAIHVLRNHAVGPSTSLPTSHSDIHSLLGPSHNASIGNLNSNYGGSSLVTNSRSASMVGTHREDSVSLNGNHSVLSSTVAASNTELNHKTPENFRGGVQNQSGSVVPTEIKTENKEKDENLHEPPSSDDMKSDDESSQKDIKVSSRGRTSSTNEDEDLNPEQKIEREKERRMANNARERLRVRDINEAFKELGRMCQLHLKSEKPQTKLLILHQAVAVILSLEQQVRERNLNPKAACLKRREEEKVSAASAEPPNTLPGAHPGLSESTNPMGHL
UniProt P10085: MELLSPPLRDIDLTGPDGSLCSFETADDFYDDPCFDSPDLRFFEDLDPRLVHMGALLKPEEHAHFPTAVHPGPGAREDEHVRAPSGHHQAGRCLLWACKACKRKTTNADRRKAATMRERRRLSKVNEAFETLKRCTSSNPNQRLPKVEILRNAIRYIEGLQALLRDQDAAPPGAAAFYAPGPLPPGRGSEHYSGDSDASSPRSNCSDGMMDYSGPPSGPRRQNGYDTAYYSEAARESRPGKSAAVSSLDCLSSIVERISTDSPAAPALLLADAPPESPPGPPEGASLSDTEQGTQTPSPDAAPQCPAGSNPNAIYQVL

These are yes or no findings as the source states them, for the method shown. Binding seen in cells or lysates may run through a third protein. Some entries that bind do so weakly or less than the wild type.

On to MYOD (from UniProt P10085 1-318), for which the binding result in assay [1] is given as “binds”; in assay [2] it was “no binding”.

B1: MYOG (protein, UniProt P12979 1-224)
chain: MELYETSPYFYQEPHFYDGENYLPVHLQGFEPPGYERTELSLSPEARGPLEEKGLGTPEHCPGQCLPWACKVCKRKSVSVDRRRAATLREKRRLKKVNEAFEALKRSTLLNPNQRLPKVEILRSAIQYIERLQALLSSLNQEERDLRYRGGGGPQPMVPSECNSHSASCSPEWGNALEFGPNPGDHLLAADPTDAHNLHSLTSIVDSITVEDMSVAFPDETMPN
B1: the binding entry in assay [3] was “binds”.

The values above are taken from publication PMC9646716.
